Small differences around the control level are noise.
Assays:
Test in all cases: normalised response (% of control), CellTox Green; higher = less cell death (100 = DMSO, 0 = benzethonium chloride kill control)
Details in all cases: incubation time: 72 h
[1] = system: MDA-MB-453
Protocol: (§1)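 DSRT, 72 h incubation, CellTox Green / CellTiter-Glo readout. Signal is normalised to DMSO and benzethonium chloride controls. Value is the normalised response at the lowest tested concentration.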

[2] = system: BT-474
Protocol: as §1

[3] = system: MCF-10A
Protocol: as §1

[4] = system: CAL-148
Protocol: as §1

[5] = system: HDQ-P1
Protocol: as §1

[6] = system: MFM-223
Protocol: as §1

[7] = system: BT-549
Protocol: as §1

[8] = system: MDA-MB-436
Protocol: as §1

[9] = system: MDA-MB-468
Protocol: as §1

[10] = system: HCC1599
Protocol: as §1

[11] = system: DU-4475
Protocol: as §1

[12] = system: CAL-51
Protocol: as §1

[13] = system: MDA-MB-231
Protocol: as §1

[14] = system: HCC1143
Protocol: as §1

[15] = system: CAL-120
Protocol: as §1

[16] = system: CAL-85-1
Protocol: as §1

[17] = system: Hs578T
Protocol: as §1

[18] = system: HCC1937
Protocol: as §1

Row | Structure (SMILES) | normalised response [1] | normalised response [2] | normalised response [3] | normalised response [4] | normalised response [5] | normalised response [6] | normalised response [7] | normalised response [8] | normalised response [9] | normalised response [10] | normalised response [11] | normalised response [12] | normalised response [13] | normalised response [14] | normalised response [15] | normalised response [16] | normalised response [17] | normalised response [18]
1 | O=C(Nc1cccnc1)N1CCC(Cc2cccc(Oc3ccc(C(F)(F)F)cn3)c2)CC1 [PF-3845] (1 nM) | 110% | 104% | 113% | 97.8% | 108% | 105% | 102% | 91.6% | 98.6% | 122% | 105% | 108% | 119% | 130% | 104% | 99.5% | 98.4% | 89.1%
2 | CC(C)(C)c1cnc(CSc2cnc(NC(=O)C3CCNCC3)s2)o1 [SNS-032] (1 nM) | 90.8% | 101% | – | 97.8% | 93.7% | 90.7% | 92.3% | 104% | 90% | 96.7% | 96.3% | 107% | 103% | 96.8% | 99.5% | 89.6% | 107% | 101%
3 | COc1cccc2c1C(=O)c1c(O)c3c(c(O)c1C2=O)C[C@@](O)(C(=O)CO)C[C@@H]3O[C@H]1C[C@H](N)[C@H](O)[C@H](C)O1 [Doxorubicin] (0.1 nM) | 108% | 104% | 96.1% | 109% | – | 101% | 90.1% | 93.1% | 63.5% | 89.6% | 100% | 115% | 102% | 95% | 101% | 106% | 111% | 108%
4 | CN(C)C(=N)NC(=N)N [Metformin] (10 nM) | 87.6% | 94.9% | 91.6% | 63.3% | 75.2% | 84% | 92.4% | 76.1% | 92.8% | 92.8% | 93.2% | – | 83.6% | 74.9% | 98.4% | 98.9% | 52.4% | 94.4%
5 | CC(C)NC[C@@H](C(=O)N1CCN(c2ncnc3c2[C@H](C)C[C@H]3O)CC1)c1ccc(Cl)cc1 [GDC-0068] (1 nM) | 100% | 98% | 107% | – | 99.2% | 84.5% | 81.8% | 86.4% | 91.1% | 106% | 106% | -53.8% | 107% | 117% | 105% | 97.1% | 113% | 104%
6 | C[C@]1(c2nc3c(C(N)=O)cccc3[nH]2)CCCN1 [Veliparib] (1 nM) | 116% | 101% | 102% | 95.6% | 94.7% | 97.5% | 95% | 84% | 81.7% | 101% | 99.8% | 117% | 102% | – | 95.1% | 101% | 87.9% | 101%
7 | CC(C)C[C@H](NC(=O)[C@H](Cc1ccccc1)NC(=O)c1cnccn1)B(O)O [Bortezomib] (0.1 nM) | 98.8% | 98.8% | 117% | 102% | 108% | 103% | 90.2% | 103% | 108% | 118% | 111% | 97.5% | 91.3% | 118% | 106% | 108% | 116% | 110%
8 | Nc1ncn([C@H]2C[C@H](O)[C@@H](CO)O2)c(=O)n1 [Decitabine] (1 nM) | 69.3% | 103% | 100% | 108% | – | 98.5% | 96.2% | 81.4% | 56.2% | 85.9% | 98.5% | 99.8% | 96.3% | 112% | 97.1% | 107% | 106% | 110%
9 | Cn1c(CCCC(=O)O)nc2cc(N(CCCl)CCCl)ccc21 [Bendamustine] (1 nM) | 111% | 102% | 109% | 91.4% | 99% | 101% | 93.3% | 97.5% | 56.4% | 99.4% | 102% | 93.9% | 115% | 90.1% | 96.8% | 99% | 97.3% | 87.3%
10 | CC[C@@H]1C(=O)N(C)c2cnc(Nc3ccc(C(=O)N[C@H]4CC[C@H](N5CCN(CC6CC6)CC5)CC4)cc3OC)nc2N1C(C)C [Volasertib] (0.1 nM) | 99.8% | 96.9% | 93.4% | 95.4% | 103% | 99.8% | 101% | 104% | – | 88.4% | 95.6% | 110% | – | 113% | 100% | 99.6% | 92.5% | 89.8%
11 | CNC(=O)c1cc(Oc2ccc(NC(=O)Nc3ccc(Cl)c(C(F)(F)F)c3)cc2)ccn1 [Sorafenib] (0.1 nM) | 107% | 98.5% | 66.9% | 85.9% | 86.4% | 102% | 104% | 65.9% | 63.1% | 94.3% | 100% | 102% | 103% | 96.4% | 100% | 96.6% | 88.9% | 92.2%
12 | O=C(CCCCCCC(=O)Nc1ccc([C@H]2O[C@@H](CSc3nc(-c4ccccc4)c(-c4ccccc4)o3)C[C@@H](c3ccc(CO)cc3)O2)cc1)NO [Tubacin] (1 nM) | 104% | 97.5% | 102% | 97.9% | 108% | 105% | 93.6% | 98% | 91.5% | 109% | 103% | 126% | 98.1% | – | 102% | 107% | 68% | 100%
13 | c1ccc2c(CCNc3ccc(Nc4ccncc4)cc3)c[nH]c2c1 [Serdemetan] (1 nM) | 98.8% | 99.4% | 80.2% | – | 73.7% | 101% | 98.9% | 74.5% | 110% | 94.5% | 97.4% | 113% | 103% | 102% | 97.9% | 98.3% | 90.1% | 86.2%

Rewritten comma-delimited: part of the list above.
Row,Structure (SMILES),normalised response [1],normalised response [2],normalised response [3],normalised response [4],normalised response [5],normalised response [6],normalised response [7],normalised response [8],normalised response [9],normalised response [10],normalised response [11],normalised response [12],normalised response [13],normalised response [14],normalised response [15],normalised response [16],normalised response [17],normalised response [18]
5,CC(C)NC[C@@H](C(=O)N1CCN(c2ncnc3c2[C@H](C)C[C@H]3O)CC1)c1ccc(Cl)cc1 [GDC-0068] (1 nM),100%,98%,107%,–,99.2%,84.5%,81.8%,86.4%,91.1%,106%,106%,-53.8%,107%,117%,105%,97.1%,113%,104%
12,O=C(CCCCCCC(=O)Nc1ccc([C@H]2O[C@@H](CSc3nc(-c4ccccc4)c(-c4ccccc4)o3)C[C@@H](c3ccc(CO)cc3)O2)cc1)NO [Tubacin] (1 nM),104%,97.5%,102%,97.9%,108%,105%,93.6%,98%,91.5%,109%,103%,126%,98.1%,–,102%,107%,68%,100%

— the supplement of paper PMC4862054
